# Measurements: paper PMC7862700
# The entries are a selection whose mix differs from that of the whole data set. For part of these data: At the low end of the ranking, values are background and their order means little. This is one part of the list. For part of these data: Construct or isoform of the protein are uncertain.
# Columns and labels:
# Test in all cases: DAPPL (digital affinity profiling via proximity ligation, sequencing)
# Details in all cases: 10 mM Tris-HCl pH 7.5, 50 mM NaCl, 1 mM DTT, 4% glycerol, room temperature, 30 min; GST-TFs on glutathione beads, 16-mer random dsDNA library, 0.1% …; high values mean tight binding; double strand, one strand shown; scale: fold enrichment (6-mer frequency, TF over GST control)
# GABPA = molecular target: T1, GABPA (UniProt Q06546)
# T1 sequence: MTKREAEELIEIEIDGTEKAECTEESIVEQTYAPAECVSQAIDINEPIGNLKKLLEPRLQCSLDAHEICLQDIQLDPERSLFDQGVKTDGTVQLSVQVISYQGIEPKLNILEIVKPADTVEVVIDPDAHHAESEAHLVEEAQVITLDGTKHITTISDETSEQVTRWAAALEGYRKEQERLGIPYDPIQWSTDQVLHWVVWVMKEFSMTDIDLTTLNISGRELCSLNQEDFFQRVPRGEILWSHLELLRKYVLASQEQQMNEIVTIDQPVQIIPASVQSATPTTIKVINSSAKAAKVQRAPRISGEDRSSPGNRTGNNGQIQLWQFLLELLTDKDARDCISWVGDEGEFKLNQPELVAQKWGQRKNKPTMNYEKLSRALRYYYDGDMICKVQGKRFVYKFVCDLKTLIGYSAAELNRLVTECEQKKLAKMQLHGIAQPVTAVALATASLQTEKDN
# ETS1 = molecular target: T2, ETS1 (UniProt P14921)
# T2 sequence: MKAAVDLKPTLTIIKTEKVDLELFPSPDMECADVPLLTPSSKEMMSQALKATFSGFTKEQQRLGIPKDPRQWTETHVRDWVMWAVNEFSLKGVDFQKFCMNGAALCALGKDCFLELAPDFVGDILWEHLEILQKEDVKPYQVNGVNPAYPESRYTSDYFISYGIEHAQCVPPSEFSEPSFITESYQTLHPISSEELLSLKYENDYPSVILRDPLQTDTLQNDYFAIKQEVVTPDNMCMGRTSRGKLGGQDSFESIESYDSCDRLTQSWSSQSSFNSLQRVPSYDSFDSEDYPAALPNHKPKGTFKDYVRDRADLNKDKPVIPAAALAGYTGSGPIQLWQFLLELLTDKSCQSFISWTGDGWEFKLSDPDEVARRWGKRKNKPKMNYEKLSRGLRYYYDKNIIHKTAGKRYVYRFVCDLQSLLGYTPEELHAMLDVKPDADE
# SPDEF = molecular target: T3, SPDEF (UniProt O95238)
# T3 sequence: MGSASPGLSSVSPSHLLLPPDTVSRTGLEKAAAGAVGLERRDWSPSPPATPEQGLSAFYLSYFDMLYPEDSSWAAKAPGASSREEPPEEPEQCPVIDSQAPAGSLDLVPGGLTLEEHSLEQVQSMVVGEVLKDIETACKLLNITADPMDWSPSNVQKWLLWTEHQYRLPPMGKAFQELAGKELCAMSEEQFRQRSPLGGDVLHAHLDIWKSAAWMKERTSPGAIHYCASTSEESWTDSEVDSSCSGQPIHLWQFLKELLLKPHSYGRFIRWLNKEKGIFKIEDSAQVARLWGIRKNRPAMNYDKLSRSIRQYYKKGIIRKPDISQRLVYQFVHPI
Sequence,binding signal (GABPA),binding signal (ETS1),binding signal (SPDEF)
CAGGGT,0.859,0.865,0.75
GCTGTG,0.627,0.663,0.646
GTCGGG,0.23,0.227,0.226
GTCGCT,0.845,0.708,0.713
TAGAGC,0.799,0.74,0.845
CGGAGA,0.2,0.218,0.23
CGTGTT,0.774,0.852,0.913
GTAACG,0.842,0.887,0.983
ACAGTC,0.461,0.414,0.405
GGTTCG,0.839,0.778,0.844
GTGGGT,0.455,0.503,0.461
CGGCGC,0.69,0.602,0.627
CGCAGA,0.831,0.808,0.756
CAAGGC,0.859,0.874,0.841
GGGGCG,0.566,0.66,0.594
CGTAGA,0.71,0.725,0.762
GACGTA,0.743,0.722,0.756
GTGGCG,0.847,0.828,0.744
AGGTCA,0.795,0.718,0.738
GTAGAC,0.762,0.741,0.791
AACCAG,0.822,0.799,0.785
TCGGGC,0.516,0.496,0.448

Sequence,binding signal (GABPA),binding signal (ETS1),binding signal (SPDEF)
GCTGAG,0.68,0.738,0.582
GTGATT,0.682,0.709,0.734
GAGCGG,0.5,0.499,0.483
ACGTGC,0.692,0.749,0.701
AGAGGA,0.629,0.674,0.611
GGTAGC,0.868,0.794,0.875
CATGAG,0.709,0.657,0.654
TCGTAA,0.922,0.933,0.853
GGTGTG,0.712,0.708,0.645
TACCAG,0.851,0.867,0.84
CGCGGT,0.858,0.868,0.818
GAGTCG,0.246,0.198,0.226
GTAAGT,0.764,0.728,0.691
GCTTGA,0.947,0.896,0.824
GTGAGT,0.136,0.122,0.134
TGGAGT,0.504,0.574,0.521
TAGTCG,0.499,0.446,0.48
CCGCGA,0.761,0.747,0.793
GAGTAG,0.505,0.483,0.445
TTCGGA,0.721,0.707,0.736
AGGTGA,0.563,0.54,0.54
GCGGGC,0.723,0.628,0.652

Sequence,binding signal (GABPA),binding signal (ETS1),binding signal (SPDEF)
TCGGCG,0.523,0.508,0.465
CGGGGC,0.639,0.638,0.67
GGCATC,0.921,1.01,0.991
AAAGTG,0.916,0.836,0.937
GCACGG,0.762,0.785,0.825
CTAGAG,0.903,0.872,0.815
GTAAGA,0.785,0.847,0.75
GCGGAT,0.951,0.877,1.25
CGCATC,0.837,0.925,1.02
TCGTGT,0.778,0.782,0.855
GCAACG,–,0.985,0.933
GACTCA,–,0.883,0.865
CGCCGT,–,0.932,0.948
GTGCAA,–,0.813,0.943
TGAAGT,0.77,0.728,0.794
ATCGTA,0.843,0.808,0.874
TCGCCA,–,0.965,0.982
AGGACT,–,0.912,0.893
GGTTGG,0.701,0.66,0.677
GTCTGC,–,0.963,0.857
GACTGT,0.412,0.417,0.417
GCCAGG,0.468,0.446,0.416

Sequence,binding signal (GABPA),binding signal (ETS1),binding signal (SPDEF)
TCAGTG,0.773,0.801,0.755
GTCTGT,0.906,0.896,0.922
GGCAAG,0.714,0.725,0.628
GACAAC,0.943,0.986,0.965
GGGCAC,0.794,0.756,0.818
GGGCCG,0.604,0.637,0.644
ATAGAG,0.948,0.881,0.933
AGGCCT,–,0.92,0.861
GTCAGG,0.503,0.506,0.501
GCATCG,0.847,0.797,0.73
CGTGAG,0.113,0.133,0.13
GGCCAC,–,0.971,0.918
AGCCGG,0.559,0.541,0.667
CACGTG,0.634,0.631,0.578
CACGTC,0.915,0.855,0.938
GGAGCC,0.318,0.332,0.32
CGTGGA,0.587,0.533,0.493
GTGAGC,0.371,0.411,0.394
GGGTAA,0.926,0.954,0.831
AGGCGC,0.591,0.575,0.492
